Measurements: PubChem BioAssay AID2685 (National Center for Advancing Translational Sciences (NCATS), 2010)
The list shows a part of the results. Further columns of the screen follow, without active or inactive calls. Compounds called inactive in the main read-out are mostly missing here. Words in brackets tell the shape of the fitted curve; partial curves, single points and poor fits give uncertain potencies.

Assay: qHTS Assay for Lipid Storage Modulators in Drosophila S3 Cells;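 for cell number change: cells counted by Cell Tracker Red CMTPX staining in the red channel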
Settings: BODIPY lipid droplet fluorescence, 18-24 h; for cell number change: measured here: cell count max response, cells fed with added oleic acid
How it was run: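 Drosophila S3 cells loaded with oleic acid (400 uM, as added) and compounds at several concentrations; lipid droplets imaged by 488-nm laser-scanning cytometry, 500–530 nm intensity and object ratio to cell channel. Percent activity normalized to 20 uM Triacsin C.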

[1] = measured here: lipid fluorescence (Fed channel) AC50, cells fed with added oleic acid
[2] = measured here: cell number channel AC50, cells fed with added oleic acid

Row | SMILES | AC50 [1] | AC50 [2] | cell number change [%]
1 | CCc1ccc(C(=O)NNC(=O)c2c(CC)noc2C)cc1 | 0.517 µM [rising, single point] | – | –
2 | Cc1ccc(CNC(=O)CN2C(=O)NC(C)(c3ccc(Cl)cc3)C2=O)cc1 (configuration not stated) | – | 6.51 µM [rising, single point] | –
3 | Oc1ccc(NCc2ccccc2OCc2ccccc2F)cc1 | 29.1 µM [rising, single point] | – | -24.7
4 | Cc1ccc(CN(C(=O)COc2ccc(Br)cc2)C2CCS(=O)(=O)C2)o1 (configuration not stated) | – | – | 14.1
5 | CC(/C=N/NC(=O)c1cc(-c2ccc(C)s2)[nH]n1)=C\c1ccccc1 | 29.1 µM [falling, single point] | 29.1 µM [falling, single point] | -40.2
6 | Cc1ccc(OCCCCn2cnc3ccccc32)c(C)c1 | 18.4 µM [falling, partial curve] | 18.4 µM [falling, partial curve] | -69.3
7 | CCOc1ccc(S(=O)(=O)/N=C(/c2ccccc2)N(C)C)cc1 | 14.6 µM [rising, single point] | – | 19.6
8 | CCOC(=O)c1sc(NC(C)=O)c(C(=O)OCC)c1C | – | – | 10.2
9 | COC(=O)c1ccccc1NC(=O)c1ccc(-c2ccc(Br)cc2)o1 | 3.26 µM [rising, partial curve] | 2.06 µM [rising, partial curve] | –
10 | CCN(Cc1ccccc1)S(=O)(=O)c1cc(C(=O)NC2CCCCCC2)ccc1OC | – | 23.1 µM [rising, single point] | 52.1
11 | O=C(CSc1ncn[nH]1)Nc1ccc(Cl)c(S(=O)(=O)N2CCOCC2)c1 | 2.31 µM [rising, single point] | – | -1.31
12 | Cc1cccc(N(CC(=O)NCc2ccccc2)C(=O)Cn2nnc(-c3ccc(C)o3)n2)c1 | – | – | -0.387
13 | Cc1ccc(C(=O)Nc2cccnc2N2CCN(C)CC2)cc1 | 0.92 µM [falling, full curve] | 16.4 µM [falling, partial curve, poor fit] | -45.6
14 | CC(NC(=O)CN1C(=O)NC2(CCCCCC2)C1=O)c1ccccc1Cl (configuration not stated) | 1.64 µM [rising, partial curve] | – | -25.1
15 | O=C(NCCc1ccncc1)Nc1ccc(Cl)cc1 | 10.3 µM [rising, partial curve] | – | 5.19
16 | CCOC(=O)C1CCCCN1Cc1cccc(F)c1 (configuration not stated) | – | 3.26 µM [falling, full curve] | -96.5
17 | COCCCNC(=O)c1ccc(-n2nc(C(F)(F)F)cc2-c2cccs2)cc1 | 6.51 µM [rising, single point] | – | 14.4
18 | CCOC(=O)c1[nH]c2ccc(OC)cc2c1NC(=O)CN1CCSCC1 | 1.84 µM [rising, full curve] | – | -5.35
19 | Cc1n[nH]c(C)c1S(=O)(=O)N1CCCC(C(=O)NC2CCCc3ccccc32)C1 (configuration not stated) | 0.116 µM [rising, full curve, poor fit] | 29.1 µM [falling, single point] | -63.7
20 | Cc1ccc(NC(=O)c2cc([N+](=O)[O-])ccc2Cl)c(O)c1 | 18.4 µM [rising, partial curve] | 23.1 µM [rising, partial curve] | 112

Row | SMILES | AC50 [1] | AC50 [2] | cell number change [%]
21 | CS(=O)(=O)c1ccc(C(=O)Nc2cc(-c3ccccc3)nn2-c2ccccc2)cc1 | 0.58 µM [rising, single point] | – | -0.528
22 | COc1ccc(-c2ccc3c(c2)c(-c2cccs2)c(-c2cc(OC)cc(OC)c2)n3C)cc1 | – | – | 15.5
23 | CC(=O)Nc1ccc(S(=O)(=O)NCCSCc2cccc(Cl)c2)cc1 | 16.4 µM [falling, partial curve, poor fit] | – | –
24 | CC(C)(C)c1cc(OC(=O)C2CCCC2)ccc1O | – | – | -24.1
25 | COc1ccc(CN2CCN(CCC(C)C)C(CCO)C2)cc1Cn1cncn1 (configuration not stated) | 29.1 µM [rising, single point] | – | 11.6
26 | O=C(CN1C(=O)CCC1=O)Nc1ccc2c3c(cccc13)CC2 | 0.82 µM [rising, full curve, poor fit] | – | 4.06
27 | c1ccc(CCN(Cc2ccccc2)Cc2nc(C3CC3)no2)cc1 | 32.6 µM [falling, single point] | – | -20.8
28 | O=C(O)c1ccc2c(c1)OCCOCCOCCOCCOCCO2 | 3.26 µM [falling, partial curve] | – | -3.6
29 | Cc1ccccc1NC(=S)N(Cc1cccs1)C1CCCC1 | – | – | 67.3
30 | CC(C)c1ccc(S(=O)(=O)N2CCN(C(=O)CCNC(=O)Nc3ccccc3)CC2)cc1 | 0.00517 µM [falling, full curve, poor fit] | – | 7.48
31 | Cc1cnc(-c2nnc(N(C)C(=O)C3CCCO3)s2)cn1 (configuration not stated) | – | 3.26 µM [rising, full curve, poor fit] | 27.7
32 | O=C(NC1CCCC1)C1CCN(S(=O)(=O)c2ccccc2)CC1 | – | – | -14.5
33 | O=C(COc1ccc(S(=O)(=O)NC2CCCCC2)cc1Cl)NCc1ccc2c(c1)OCO2 | 9.2 µM [rising, partial curve] | 16.4 µM [rising, partial curve] | 58.5
34 | CC(C)C[C@H](NC(=O)c1nc[nH]c1C(=O)NCC(=O)OCc1ccccc1)C(=O)OCc1ccccc1 | 29.1 µM [falling, single point] | 7.31 µM [rising, single point] | 21
35 | Clc1ccc(CSc2nnc(-c3ccncc3)o2)c(Cl)c1 | 0.92 µM [rising, full curve, poor fit] | – | -20.7
36 | Cc1ccc2nc(N3C(=O)CNC3=S)sc2c1 | 7.31 µM [falling, full curve] | – | -24.4
37 | C/C(Cl)=C/Cn1c(SCCN2CCOCC2)nc2c1c(=O)[nH]c(=O)n2C | – | – | -15.1
38 | Cc1ccnc(NS(=O)(=O)c2ccc(NC(=O)COc3ccccc3)cc2)n1 | – | 32.6 µM [falling, single point] | -32.1
39 | COc1cc(-c2nc3ccccn3c2NCC2CCCO2)ccc1O (configuration not stated) | 6.51 µM [falling, partial curve, poor fit] | – | -4.58
40 | Oc1ccc(Nc2ncnc3scc(-c4ccccc4)c23)cc1 | 4.11 µM [falling, single point] | 0.164 µM [falling, full curve, poor fit] | -18

Complete entries, looked up by structure. Values in the order: AC50 [1] | AC50 [2] | cell number change [%]
`CC(C)c1ccc(S(=O)(=O)N2CCN(C(=O)CCNC(=O)Nc3ccccc3)CC2)cc1` as listed: 0.00517 µM [falling, full curve, poor fit] | – | 7.48
`Cc1ccc(C(=O)Nc2cccnc2N2CCN(C)CC2)cc1` as listed: 0.92 µM [falling, full curve] | 16.4 µM [falling, partial curve, poor fit] | -45.6
`O=C(CN1C(=O)CCC1=O)Nc1ccc2c3c(cccc13)CC2` as listed: 0.82 µM [rising, full curve, poor fit] | – | 4.06
`Cc1n[nH]c(C)c1S(=O)(=O)N1CCCC(C(=O)NC2CCCc3ccccc32)C1` (configuration not stated) as listed: 0.116 µM [rising, full curve, poor fit] | 29.1 µM [falling, single point] | -63.7

Going on with the list.

Row | SMILES | AC50 [1] | AC50 [2] | cell number change [%]
41 | Cc1ccc2cc(C#N)c(NCCNC(=O)C3CCC3)nc2c1C | 0.82 µM [rising, partial curve] | – | -0.312
42 | O=C(CC1Nc2ccccc2NC1=O)Nc1ccccc1NC(=O)CC1Nc2ccccc2NC1=O (configuration not stated) | 25.9 µM [rising, single point] | – | 5.82
43 | COc1cccc(NC(=O)N2CCN(c3ccc(C(F)(F)F)cn3)CC2)c1 | – | – | 0.968
44 | COc1ccc(NC(=O)CN2CCN(S(=O)(=O)c3ccc(C(C)C)cc3)CC2)cc1OC | 1.46 µM [rising, partial curve] | – | -7.19
45 | COc1ccc(NC(=O)CCNS(=O)(=O)c2ccc(NC(C)=O)cc2)cc1Cl | – | – | 12.2
46 | CC1CN(C(=O)N2CCCCC2)CCN1C(=O)N1CCCCC1 (configuration not stated) | 0.651 µM [falling, single point] | – | -11
47 | CCSc1ccc([C@@H]2[C@H]3C(=O)N(C)C(=O)[C@H]3[C@]3(C(=O)OC)CCCCN23)cc1 | – | 9.2 µM [falling, partial curve, poor fit] | -34.8
48 | CC1CCCCN1S(=O)(=O)c1ccc(C(=O)Nc2nnc(-c3cccs3)o2)cc1 (configuration not stated) | 4.11 µM [rising, partial curve] | 0.326 µM [falling, full curve, poor fit] | –
49 | CC/C(=N\NC(=O)c1nnn(-c2nonc2N)c1-c1ccc2c(c1)OCO2)c1ccccc1 | 29.1 µM [rising, single point] | – | 0.612
50 | CCCCOC(=O)CCCc1ccc([N+](=O)[O-])cc1[N+](=O)[O-] | – | 0.731 µM [falling, single point] | -9
51 | Cc1occc1C(=O)N1CCN(c2ncccn2)CC1 | 2.31 µM [falling, partial curve] | 0.82 µM [falling, full curve] | 4.24
52 | O=C(CCC(=O)N(CC(=O)NC1CCCCC1)Cc1ccccc1)Nc1ccccn1 | 16.4 µM [falling, partial curve, poor fit] | – | -15.3
53 | COCc1nc2ccccc2n1Cc1ccccc1Br | – | – | -17.2
54 | CC1(C)CC(=O)C2=C(C1)OC1=C(C2)C(=O)CC(C)(C)C1 | 25.9 µM [falling, single point] | 29.1 µM [falling, single point] | -53.5
55 | Nc1nc(-c2nc3ccccc3[nH]2)cs1 | 0.366 µM [rising, full curve] | 0.82 µM [rising, partial curve] | –
56 | CN(C)c1nnnn1-c1ccc(OC(F)(F)F)cc1 | – | 0.0517 µM [falling, full curve] | -50.6
57 | FC(F)(F)c1cccc(NC(=S)NCC2COc3ccccc3O2)c1 (configuration not stated) | 29.1 µM [falling, single point] | 18.4 µM [falling, single point] | -31.1
58 | CCOC(=O)C1=C(COC(=O)CCCOc2ccccc2)NC(=O)NC1C (configuration not stated) | – | – | -24.9
59 | N/C(=N\OC(=O)COc1ccc2ccccc2c1)c1cccnc1 | 3.26 µM [rising, partial curve] | 2.91 µM [rising, single point] | 6.42
60 | Cc1ccc(C(=O)Nc2ccccc2C(=O)NCc2ccccc2)cc1 | 0.58 µM [rising, partial curve, poor fit] | – | -8.11
